Results: publication PMC9088311, “Cyclic Thiosulfonates for Thiol-Mediated Uptake: Cascade Exchangers, Transporters, Inhibitors” (JACS Au, 2022)

Tested on: HeLa Kyoto cells
Test: Relative viability (HOE/PI) in HCHT screening
Method: One advantage of HCHT imaging of cellular uptake compared to flow cytometry[38],[42],[43] is that it simultaneously gives information on toxicity and intracellular localization. […] Information on the intracellular localization of reporters can be quantified through segmentation of cellular compartments stained with specific markers.[52]
Uptake inhibition was measured by the automated HCHT imaging used already to elaborate on cytosolic delivery. For inhibitor screening, HK cells in multiwell plates were incubated with increasing concentrations of inhibitors, followed by fluorescent transporters 28, 31, and 32 at a constant concentration. […] If inhibitors are removed before the addition of transporters 28, 31, and 32, the method is referred to as “pre-incubation”. This is of interest to minimize exchange between the transporter and the inhibitor but is often problematic because dynamic covalent exchange between the inhibitor and cellular target can also be reversed and thus lost. The complementary “co-incubation” operates without inhibitor removal before the addition of transporters 28, 31, and 32.
Relative cell viability ( RV) for each condition in the presence of inhibitors was calculated […]
of the relative cell viability ( RVrel) to the concentration of inhibitors ( cinhibitor ) was plotted and fitted with Equation (S19) to retrieve the concentration causing 50% cell growth inhibition (RV50) value and the Hill coefficient ( n).

[1] = with transporter 28, pre-incubation (P)

| Compound | n (RV50), Hill coefficient for cell viability [1] | further results |
| --- | --- | --- |
| CC(C)(C)[Si](C)(C)O[C@@H]1CS(=O)(=O)SC[C@@H]1O [Compound 6] | – | n (RV50), Hill coefficient for cell viability (with transporter 31, co-incubation (C)): 8 ± 3 |
| O=S1(=O)C=C[C@@H](O)CS1 [Compound 12] | – | n (RV50), Hill coefficient for cell viability (with transporter 28, co-incubation (C)): 1.1 ± 0.4 |
| CC(C)(C)[Si](C)(C)O[C@H]1CS(=O)(=O)SC[C@H]1OC(=O)NCCNC(=O)CC(O)(CC(=O)NCCNC(=O)O[C@H]1CSS(=O)(=O)C[C@H]1O[Si](C)(C)C(C)(C)C)C(=O)NCCNC(=O)O[C@@H]1CSS(=O)(=O)C[C@@H]1O[Si](C)(C)C(C)(C)C (some centres unmarked) [Compound 42] | 2.0 ± 0.5 | – |
| CCCNC(=O)O[C@H]1CSS(=O)(=O)C[C@H]1O[Si](C)(C)C(C)(C)C [Compound 43] | 2.6 ± 0.7 | – |
| C#CCNC(=O)CC[C@H](NC(=O)COCCNC(=O)O[C@H]1CSS(=O)(=O)C[C@H]1O[Si](C)(C)C(C)(C)C)C(=O)NCCOCCNC(=O)O[C@H]1CSS(=O)(=O)C[C@H]1O[Si](C)(C)C(C)(C)C [Compound 44] | 3.7 ± 0.9 | – |
